Reference: EP1988165A1
No constants are given. Whether binding was seen depends on the method and setting. For some assays here: Binding seen in cells or lysates may run through a third protein. Some results given as binding are weak or reduced against the parent protein; the word gives no strength.

The chains behind the UniProt entries cited, without tags or fusion partners. Where a name states a change or a piece, a line headed by the entry shows the natural chain unless it says otherwise. Residues count along the entry.
UniProt Q8BZQ7, residues 15-837: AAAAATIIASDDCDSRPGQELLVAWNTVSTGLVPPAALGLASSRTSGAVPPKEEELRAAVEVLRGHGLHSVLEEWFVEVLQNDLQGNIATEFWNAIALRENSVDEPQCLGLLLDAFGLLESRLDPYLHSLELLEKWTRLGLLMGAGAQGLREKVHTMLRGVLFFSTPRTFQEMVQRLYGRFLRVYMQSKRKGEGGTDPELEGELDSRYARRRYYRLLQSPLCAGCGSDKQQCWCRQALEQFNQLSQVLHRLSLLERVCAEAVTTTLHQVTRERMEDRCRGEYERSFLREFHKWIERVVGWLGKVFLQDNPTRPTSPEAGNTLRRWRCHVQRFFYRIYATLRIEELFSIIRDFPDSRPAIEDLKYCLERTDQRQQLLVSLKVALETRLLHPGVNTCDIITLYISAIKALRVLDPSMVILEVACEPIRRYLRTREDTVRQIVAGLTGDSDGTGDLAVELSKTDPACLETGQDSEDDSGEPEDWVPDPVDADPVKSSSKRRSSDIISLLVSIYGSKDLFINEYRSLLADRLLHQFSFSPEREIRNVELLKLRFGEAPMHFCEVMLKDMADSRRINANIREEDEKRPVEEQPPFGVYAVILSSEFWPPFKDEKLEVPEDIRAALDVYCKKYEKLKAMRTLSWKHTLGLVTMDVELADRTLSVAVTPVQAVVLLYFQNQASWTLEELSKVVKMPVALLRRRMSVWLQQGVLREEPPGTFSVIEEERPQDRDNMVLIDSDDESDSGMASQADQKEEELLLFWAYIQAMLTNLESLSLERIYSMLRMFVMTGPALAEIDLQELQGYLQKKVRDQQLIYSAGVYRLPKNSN
UniProt Q93034: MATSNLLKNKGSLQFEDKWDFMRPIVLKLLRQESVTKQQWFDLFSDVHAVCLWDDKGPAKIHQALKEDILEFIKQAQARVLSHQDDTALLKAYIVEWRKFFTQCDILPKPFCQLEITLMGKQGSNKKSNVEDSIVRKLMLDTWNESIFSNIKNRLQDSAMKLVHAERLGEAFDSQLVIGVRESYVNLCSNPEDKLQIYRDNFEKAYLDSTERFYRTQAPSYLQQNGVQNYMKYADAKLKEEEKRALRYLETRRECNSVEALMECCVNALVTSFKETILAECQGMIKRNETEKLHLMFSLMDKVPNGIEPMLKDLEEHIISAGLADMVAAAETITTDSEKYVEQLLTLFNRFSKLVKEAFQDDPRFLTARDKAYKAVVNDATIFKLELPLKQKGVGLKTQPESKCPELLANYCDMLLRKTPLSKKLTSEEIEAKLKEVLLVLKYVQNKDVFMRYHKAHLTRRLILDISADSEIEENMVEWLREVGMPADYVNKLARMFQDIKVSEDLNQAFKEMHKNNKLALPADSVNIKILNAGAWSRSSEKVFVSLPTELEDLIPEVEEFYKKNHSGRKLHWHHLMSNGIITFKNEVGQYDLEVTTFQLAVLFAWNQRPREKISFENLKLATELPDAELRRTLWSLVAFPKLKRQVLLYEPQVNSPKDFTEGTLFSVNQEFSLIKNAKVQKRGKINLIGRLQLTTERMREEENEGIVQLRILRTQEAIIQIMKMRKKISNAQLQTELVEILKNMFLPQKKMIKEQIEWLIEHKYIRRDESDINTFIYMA
UniProt Q3TCH7: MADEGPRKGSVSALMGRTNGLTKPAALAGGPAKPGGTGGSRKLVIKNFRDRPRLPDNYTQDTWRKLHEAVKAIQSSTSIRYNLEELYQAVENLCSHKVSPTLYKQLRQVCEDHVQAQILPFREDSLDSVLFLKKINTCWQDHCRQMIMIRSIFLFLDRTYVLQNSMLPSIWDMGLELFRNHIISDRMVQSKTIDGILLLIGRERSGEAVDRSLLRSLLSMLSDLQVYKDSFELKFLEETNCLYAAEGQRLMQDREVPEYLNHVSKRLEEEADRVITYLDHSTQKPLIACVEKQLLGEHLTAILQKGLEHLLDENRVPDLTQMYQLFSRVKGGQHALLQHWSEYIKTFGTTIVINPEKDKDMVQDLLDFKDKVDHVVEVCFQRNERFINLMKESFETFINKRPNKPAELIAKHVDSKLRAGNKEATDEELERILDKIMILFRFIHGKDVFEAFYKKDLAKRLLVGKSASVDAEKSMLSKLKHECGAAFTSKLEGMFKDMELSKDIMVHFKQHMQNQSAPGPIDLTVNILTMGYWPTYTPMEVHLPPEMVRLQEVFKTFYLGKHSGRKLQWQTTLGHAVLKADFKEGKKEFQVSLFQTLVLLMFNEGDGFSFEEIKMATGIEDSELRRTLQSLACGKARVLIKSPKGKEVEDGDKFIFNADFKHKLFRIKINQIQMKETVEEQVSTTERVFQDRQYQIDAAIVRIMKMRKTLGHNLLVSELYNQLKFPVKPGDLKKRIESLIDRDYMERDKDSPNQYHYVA
UniProt Q13617: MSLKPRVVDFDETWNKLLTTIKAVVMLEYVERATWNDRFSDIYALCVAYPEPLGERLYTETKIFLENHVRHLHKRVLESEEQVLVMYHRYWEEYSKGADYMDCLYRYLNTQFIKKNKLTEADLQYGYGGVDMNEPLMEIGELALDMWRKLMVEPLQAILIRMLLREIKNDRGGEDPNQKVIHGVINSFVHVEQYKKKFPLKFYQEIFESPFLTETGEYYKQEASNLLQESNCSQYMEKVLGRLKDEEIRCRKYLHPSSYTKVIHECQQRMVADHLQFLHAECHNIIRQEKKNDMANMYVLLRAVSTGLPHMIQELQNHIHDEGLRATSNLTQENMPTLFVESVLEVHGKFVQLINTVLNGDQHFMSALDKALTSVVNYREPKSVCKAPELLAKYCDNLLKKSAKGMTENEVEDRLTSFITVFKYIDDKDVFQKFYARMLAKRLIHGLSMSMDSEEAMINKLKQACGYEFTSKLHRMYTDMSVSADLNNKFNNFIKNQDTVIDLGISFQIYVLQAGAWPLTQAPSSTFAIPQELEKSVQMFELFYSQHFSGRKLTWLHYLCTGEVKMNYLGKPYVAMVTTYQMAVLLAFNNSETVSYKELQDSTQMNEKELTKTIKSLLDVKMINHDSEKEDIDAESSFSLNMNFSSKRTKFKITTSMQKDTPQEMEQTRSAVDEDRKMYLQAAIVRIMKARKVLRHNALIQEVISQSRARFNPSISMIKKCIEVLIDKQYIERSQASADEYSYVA
UniProt Q13616: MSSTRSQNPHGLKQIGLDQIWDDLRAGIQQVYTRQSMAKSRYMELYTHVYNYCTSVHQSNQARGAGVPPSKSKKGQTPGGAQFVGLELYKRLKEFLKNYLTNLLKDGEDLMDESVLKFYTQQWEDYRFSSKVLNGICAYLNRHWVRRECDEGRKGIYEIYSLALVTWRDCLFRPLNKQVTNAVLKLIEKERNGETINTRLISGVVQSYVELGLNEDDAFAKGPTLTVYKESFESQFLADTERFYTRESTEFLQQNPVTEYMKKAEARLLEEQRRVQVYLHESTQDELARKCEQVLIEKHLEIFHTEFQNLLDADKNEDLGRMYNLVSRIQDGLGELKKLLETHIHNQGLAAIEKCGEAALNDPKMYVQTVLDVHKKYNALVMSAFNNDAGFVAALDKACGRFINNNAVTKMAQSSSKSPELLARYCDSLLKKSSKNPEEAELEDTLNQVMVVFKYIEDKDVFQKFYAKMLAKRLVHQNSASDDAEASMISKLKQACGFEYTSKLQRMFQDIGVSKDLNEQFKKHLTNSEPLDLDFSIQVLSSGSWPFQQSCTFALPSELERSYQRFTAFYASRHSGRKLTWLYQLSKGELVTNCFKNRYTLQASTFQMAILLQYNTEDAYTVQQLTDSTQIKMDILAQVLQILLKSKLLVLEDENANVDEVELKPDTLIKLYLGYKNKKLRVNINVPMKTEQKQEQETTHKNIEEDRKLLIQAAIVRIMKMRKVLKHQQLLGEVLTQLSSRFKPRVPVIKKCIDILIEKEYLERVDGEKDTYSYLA
UniProt P04386: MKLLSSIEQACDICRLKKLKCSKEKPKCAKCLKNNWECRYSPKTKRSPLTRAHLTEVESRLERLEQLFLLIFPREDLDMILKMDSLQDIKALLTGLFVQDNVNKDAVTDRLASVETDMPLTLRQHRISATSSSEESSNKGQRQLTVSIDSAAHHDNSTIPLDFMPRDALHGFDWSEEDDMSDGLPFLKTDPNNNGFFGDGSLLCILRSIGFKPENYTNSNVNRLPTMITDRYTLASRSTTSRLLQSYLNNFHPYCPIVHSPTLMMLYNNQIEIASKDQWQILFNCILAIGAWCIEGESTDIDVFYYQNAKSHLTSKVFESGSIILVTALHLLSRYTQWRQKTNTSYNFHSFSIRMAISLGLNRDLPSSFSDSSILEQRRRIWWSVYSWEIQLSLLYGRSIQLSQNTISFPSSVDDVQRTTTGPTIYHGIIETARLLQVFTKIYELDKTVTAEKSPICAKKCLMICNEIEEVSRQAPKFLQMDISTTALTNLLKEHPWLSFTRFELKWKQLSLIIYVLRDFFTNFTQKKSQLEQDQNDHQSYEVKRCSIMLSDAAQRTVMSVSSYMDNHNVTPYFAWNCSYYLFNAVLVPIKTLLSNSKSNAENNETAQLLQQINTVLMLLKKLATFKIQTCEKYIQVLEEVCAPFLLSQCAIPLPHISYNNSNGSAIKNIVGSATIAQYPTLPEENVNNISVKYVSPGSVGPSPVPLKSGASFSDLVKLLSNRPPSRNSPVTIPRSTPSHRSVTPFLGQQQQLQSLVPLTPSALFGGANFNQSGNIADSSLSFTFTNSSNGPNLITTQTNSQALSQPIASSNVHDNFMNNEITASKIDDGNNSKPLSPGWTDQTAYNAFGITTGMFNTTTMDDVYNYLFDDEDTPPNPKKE
UniProt Q9UBF6: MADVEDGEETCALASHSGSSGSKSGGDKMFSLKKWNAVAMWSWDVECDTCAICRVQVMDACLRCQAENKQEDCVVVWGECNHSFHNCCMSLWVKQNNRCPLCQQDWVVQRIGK
UniProt Q9NYG5: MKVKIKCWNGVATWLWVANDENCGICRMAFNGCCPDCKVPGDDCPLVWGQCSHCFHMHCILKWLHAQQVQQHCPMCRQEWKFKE

Tests used:
[1] = target: myc-epitope tagged APC2 (mouse) (UniProt Q8BZQ7); assay: reciprocal co-immunoprecipitation from transfected HeLa cells
[2] = target: myc-epitope tagged cullin 5 (UniProt Q93034); assay: co-immunoprecipitation with anti-HA from [35S]-methionine labeled transfected cells (FIG. 4D)
[3] = target: myc-epitope tagged cullin 5 (UniProt Q93034); assay: co-immunoprecipitation from [35S]-methionine labeled transfected cells (FIG. 4D)
[4] = target: myc-epitope tagged mouse CUL4A (mouse) (UniProt Q3TCH7); assay: co-immunoprecipitation with anti-HA from [35S]-methionine labeled transfected cells (FIG. 4C)
[5] = target: myc-epitope tagged cullin 5 (UniProt Q93034); assay: as above
[6] = target: myc-epitope tagged cullin 2 (UniProt Q13617); assay: as above
[7] = target: human CUL1, untagged (transfected, in vitro translated or endogenous) (human) (UniProt Q13616); assay: as above
[8] = target: myc-epitope tagged mouse CUL4A (mouse) (UniProt Q3TCH7); assay: co-immunoprecipitation from [35S]-methionine labeled transfected cells (FIG. 4C)
[9] = target: myc-epitope tagged cullin 5 (UniProt Q93034); assay: as above
[10] = target: myc-epitope tagged cullin 2 (UniProt Q13617); assay: as above
[11] = target: human CUL1, untagged (transfected, in vitro translated or endogenous) (human) (UniProt Q13616); assay: as above
[12] = target: mouse APC2 fused to the Gal4 DNA binding domain (yeast; mouse) (UniProt P04386+Q8BZQ7); assay: yeast two-hybrid, -LWH medium with 5 mM 3-AT (FIG. 4E)
[13] = target: cullin 5 fused in frame with the DNA-binding domain of Gal4 (pGBT8) (yeast) (UniProt P04386+Q93034); assay: yeast two-hybrid (FIG. 4B)
[14] = target: full-length mouse cullin 4A fused in frame with the DNA-binding domain of Gal4 (yeast; mouse) (UniProt P04386+Q3TCH7); assay: yeast two-hybrid (FIG. 4A)
[15] = target: cullin 2 fused in frame with the DNA-binding domain of Gal4 (pGBT8) (yeast) (UniProt P04386+Q13617); assay: yeast two-hybrid (FIG. 4A)
[16] = target: human CUL1 fused in frame with the DNA-binding domain of Gal4 (pGBT8) (yeast; human) (UniProt P04386+Q13616); assay: yeast two-hybrid (FIG. 4A)
[17] = target: HA tagged human ROC2 (human) (UniProt Q9UBF6); assay: immunoprecipitation with anti-myc from [35S]-methionine labeled transfected cells (FIG. 4C)

Measured: binding

HA tagged human APC11 (from UniProt Q9NYG5 1-84)
binds: [1] | [2] | [3]

HA tagged human ROC2 (from UniProt Q9UBF6 2-113)
binds: [4] | [5] | [6] | [7] | [8] | [9] | [10] | [11]

full length human APC11 fused in-frame with the yeast Gal4 DNA activation domain (from UniProt Q9NYG5 1-84)
binds: [12] | [13]

full length human ROC2 fused in-frame with the yeast Gal4 DNA activation domain (from UniProt Q9UBF6 29-113)
binds: [14] | [15] | [16]

myc-epitope tagged cullin 5 (from UniProt Q93034 1-780)
binds: [17]
